At least one compound was matched to its structure with a doubt left.
Tests used:
Penicillium digitatum = experiment: Post-harvest preservation of lemons; assay type: in vivo
Procedure: To investigate if zosteric acid and/or coumaric acid can protect fruit and vegetables against post-harvest infection with different fungi, zosteric and coumaric acids fungicidal effect was tested in capsicums and lemons infected with Alternaria alternata and Penicillium digitatum, respectively. The tests were performed by acquiring the relevant fruit and vegetables from the local supermarket. Both fruit and vegetables were bought as organic produce to ensure a minimum of pesticides had already been applied. […] Each application treatment was performed in triplicate on three separate pieces of produce. After treatment, the produce was allowed to dry in a sterile laminar flow cabinet followed by a second round of application and drying. The produce was then inoculated with the relevant fungal spores using a grafting stick. […] The inoculated produce was subsequently placed in […] plastic bags to prevent contamination with other organisms and to prevent the produce from drying out due to air circulation in the incubator. The wrapped capsicums and lemons were placed at 10° C. and the fungal growth followed by measuring the diameter of the growth from the point of inoculation for 25 days.

[1] = test system: downy mildew in grapevine (plasmopara viticola); experiment: Downy mildew in grapevine, controlled environment trial, foliar spray; conditions: Example 9 trial

## O=C(O)/C=C/c1ccc(O)cc1 [coumaric acid]
Penicillium digitatum; lemons sprayed twice, 10° C., followed 25 days, triplicate
  time after inoculation until P. digitatum growth was observed: four
Penicillium digitatum; lemons, day 25, three replicates
  replicates with P. digitatum growth at end of test period: all replicates
[1]
  efficacy compared with positive control Funguran Progress (copper): comparable to the positive control Funguran Progress

— patent US20260101892A1, “METHOD TO INHIBIT PROLIFERATION OF A PHYTOPATHOGEN ON PLANTS AND COMPOSITIONS USED FOR THIS PURPOSE” (CYSBIO APS, priority 2022, published 2026)
